Assay results taken from paper PMC9095880, “AIMP2-DX2 provides therapeutic interface to control KRAS-driven tumorigenesis” (Nature Communications, 2022).

Target: T1, Strep-DX2 (Strep-tagged AIMP2-DX2) (human) (UniProt Q13155)
T1 sequence: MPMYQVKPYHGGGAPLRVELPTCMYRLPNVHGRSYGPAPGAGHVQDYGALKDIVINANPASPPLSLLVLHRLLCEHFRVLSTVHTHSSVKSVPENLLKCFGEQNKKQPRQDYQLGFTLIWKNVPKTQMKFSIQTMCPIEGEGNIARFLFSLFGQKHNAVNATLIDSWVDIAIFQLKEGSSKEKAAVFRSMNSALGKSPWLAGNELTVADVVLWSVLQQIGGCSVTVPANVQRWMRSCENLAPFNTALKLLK
Assay: affinity purification with mass spectrometry; H460 cells expressing Strep-DX2 or Strep-EV, EGF 30 min; 5 mg lysate on a strep-tactin column; in-gel digestion, LC-MS/MS (n = 1)

B1: peroxiredoxin 1 (PRDX1) (protein, UniProt Q06830 1-199)
chain: MSSGNAKIGHPAPNFKATAVMPDGQFKDISLSDYKGKYVVFFFYPLDFTFVCPTEIIAFSDRAEEFKKLNCQVIGASVDSHFCHLAWVNTPKKQGGLGPMNIPLVSDPKRTIAQDYGVLKADEGISFRGLFIIDDKGILRQITVNDLPVGRSVDETLRLVQAFQFTDKHGEVCPAGWKPGSDTIKPDVQKSKEYFSKQK
For B1, the binding was “binds”.

Results are given in words; binding and its absence hold for the method and conditions named. Binding seen in cells or lysates may run through a third protein. A yes stands for co-enrichment or nearness to the bait. Other partners may have been found. Where a sequence is shown, tags or fusion partners need not be part of it.
